Source: PMC8316575
No constants are given. Whether binding was seen depends on the method and setting. Binding seen in cells or lysates may run through a third protein. Some entries that bind do so weakly or less than the wild type.

The chains behind the UniProt entries cited, without tags or fusion partners.
UniProt P47196: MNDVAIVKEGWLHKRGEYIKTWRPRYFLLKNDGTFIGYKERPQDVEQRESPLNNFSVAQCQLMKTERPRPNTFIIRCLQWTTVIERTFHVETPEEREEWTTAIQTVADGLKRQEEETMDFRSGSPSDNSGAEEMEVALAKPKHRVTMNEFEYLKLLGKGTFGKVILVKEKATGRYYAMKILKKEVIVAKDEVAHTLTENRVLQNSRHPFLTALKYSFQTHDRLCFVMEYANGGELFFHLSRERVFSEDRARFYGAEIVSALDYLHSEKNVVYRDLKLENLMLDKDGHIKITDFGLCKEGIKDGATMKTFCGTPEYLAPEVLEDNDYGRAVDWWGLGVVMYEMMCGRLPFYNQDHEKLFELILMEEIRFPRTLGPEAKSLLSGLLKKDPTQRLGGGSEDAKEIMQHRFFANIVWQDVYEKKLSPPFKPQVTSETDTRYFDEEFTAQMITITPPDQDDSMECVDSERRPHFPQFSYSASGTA

Biological target: T1, Bad (rat (endogenous in kidney cortex)) (UniProt O35147)
T1 sequence: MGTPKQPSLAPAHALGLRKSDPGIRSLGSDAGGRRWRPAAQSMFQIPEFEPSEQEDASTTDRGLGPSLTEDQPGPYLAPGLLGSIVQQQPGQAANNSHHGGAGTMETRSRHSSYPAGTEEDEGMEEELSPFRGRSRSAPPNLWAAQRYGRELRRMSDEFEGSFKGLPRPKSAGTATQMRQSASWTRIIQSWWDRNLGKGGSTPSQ
Assay: co-IP; anti-Bad 11E3 antibody (or normal rabbit IgG) on Dynabeads, incubated with rat kidney cortex lysate (RIPA, 0.8 mg protein) overnight at 4 °C; blot for Akt1; cortex slices pre-treated with 10 or 30 mM glucose for 1 h, with or without ouabain

binding: binds
Substance: Akt1 (from UniProt P47196 1-480) (enzyme)
